In the experiment the target is Yin Yang 1 (YY1) (human (endogenous in HEK293T)) (UniProt P25490). As to the kind of experiment: co-IP; endogenous proteins in HEK293T cell lysate; capture with YY1 antibody overnight at 4°C, Protein A/G magnetic beads (Pierce Classic Magnetic IP/Co-IP Kit), Western blot of the eluate.

Protein sequences, listed by entry. Tags and fused reporters are not part of them.
UniProt P25490: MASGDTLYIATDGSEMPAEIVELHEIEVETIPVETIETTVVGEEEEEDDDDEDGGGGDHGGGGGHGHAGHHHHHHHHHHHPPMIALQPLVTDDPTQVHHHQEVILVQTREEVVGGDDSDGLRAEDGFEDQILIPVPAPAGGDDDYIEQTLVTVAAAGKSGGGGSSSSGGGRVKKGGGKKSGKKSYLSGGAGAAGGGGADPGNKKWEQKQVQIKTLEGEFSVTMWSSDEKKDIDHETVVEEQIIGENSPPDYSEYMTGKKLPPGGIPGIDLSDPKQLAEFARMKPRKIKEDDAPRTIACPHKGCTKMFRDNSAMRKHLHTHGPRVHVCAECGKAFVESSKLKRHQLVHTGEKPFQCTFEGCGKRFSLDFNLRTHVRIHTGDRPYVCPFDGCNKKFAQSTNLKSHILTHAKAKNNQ

These are yes or no findings as the source states them, for the method shown. Binding seen in cells or lysates may run through a third protein. Some binding calls cover weakened binding; strength is not graded here.

B1: T-box transcription factor 21 (T-bet) (protein, UniProt Q9UL17 1-535)
chain: MGIVEPGCGDMLTGTEPMPGSDEGRAPGADPQHRYFYPEPGAQDADERRGGGSLGSPYPGGALVPAPPSRFLGAYAYPPRPQAAGFPGAGESFPPPADAEGYQPGEGYAAPDPRAGLYPGPREDYALPAGLEVSGKLRVALNNHLLWSKFNQHQTEMIITKQGRRMFPFLSFTVAGLEPTSHYRMFVDVVLVDQHHWRYQSGKWVQCGKAEGSMPGNRLYVHPDSPNTGAHWMRQEVSFGKLKLTNNKGASNNVTQMIVLQSLHKYQPRLHIVEVNDGEPEAACNASNTHIFTFQETQFIAVTAYQNAEITQLKIDNNPFAKGFRENFESMYTSVDTSIPSPPGPNCQFLGGDHYSPLLPNQYPVPSRFYPDLPGQAKDVVPQAYWLGAPRDHSYEAEFRAVSMKPAFLPSAPGPTMSYYRGQEVLAPGAGWPVAPQYPPKMGPASWFRPMRTLPMEPGPGGSEGRGPEDQGPPLVWTEIAPIRPESSDSGLGEGDSKRRRVSPYPSSGDSSSPAGAPSPFDKEAEGQFYNYFPN
Take B1: the binding result is “binds”.

These data come from paper PMC8663781.
